Data from publication doi:10.1101/2022.02.14.480324.
These are yes or no findings as the source states them, for the method shown. Tags and fused reporters may be left off the sequences shown.

Tests used:
Assay in all cases: two-hybrid
[1] = target: N-terminal truncated OsTPR2 (OsTPR2n) fused with the GAL4 BD (Oryza sativa)
[2] = target: N-terminal truncated OsTPR1 (OsTPR1n) fused with the GAL4 BD (Oryza sativa)
[3] = target: N-terminal truncated OsTPL (OsTPLn) fused with the GAL4 BD (Oryza sativa)

Measured: binding

B1: full-length OsIRO2 fused with the GAL4 AD (protein, UniProt Q0JFZ0 1-247)
chain: MEQLFVDDPAFASSMSSLEADIFSGAGQLPSSPWLDLDLDDDVQDLSMAPTTANAVSSGYGSGGSGSHRKLSHNAYERDRRKQLNELYSSLRALLPDADHTKLSIPTTVSRVLKYIPELQKQVENLERKKKELTTTSTTNCKPGVLGSQLMSEGMAPIVSATCINDMEIMVQVSLLSNVAGSVLPLSKCIKVLENEGLHFISSSTSSGFGNRTFYSIHLQRSEGTINEECPAFCERLEKVVRNKAKL
no binding: all assays above
